These results are taken from the supplement of paper PMC9135407.

This assay has as its system primary human hepatic stellate cells (donor 1). The assay can be described thus: percent Bodipy-positive cells; higher = more lipid droplet accumulation. Particulars: 48 h.
The mark [1] stands for this setting: library stock concentration: 1 mM.
[2] abbreviates: library stock concentration: 10 mM.
Setting [3] is: library stock concentration: 3.33 mM.
Setting [4] is: library stock concentration: 80 uM.
The mark [5] stands for this setting: library stock concentration: 400 uM.
Setting [6] is: library stock concentration: 2 mM.
Setting [7] is: library stock concentration: 5 mM.

“And” between values parts separate entries of the source, which are not always exact repeats. Identical values can stand only once. Counter-ions that a name gives are not always drawn. ± gives the standard deviation of the averaged measurements. Some of the results follow. Baselines shift from plate to plate; read single values as rough.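 Assay uses culture-activated primary human stellate myofibroblasts; lipid droplet recovery indicates inactivation. Measured: proportion of Hoechst-counted cells over a plate-specific Bodipy cutoff, duplicate wells, DMSO and nortriptyline as per-plate negative and positive controls. A hit scores, control-normalized, above the plate's top-tenth-percentile nortriptyline wells or ranks among its three best wells. Final well concentrations not reported.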

Consider `CCCCCC(O)C=CC1CC2CC(C1CC=CCCCC(=O)O)C2(C)C` [15(R)-Pinane Thromboxane A2], for which the “percent Bodipy-positive cells” value under setting [1] turned out to be 12 ± 7.2%.

On to `OC[C@H]1O[C@@H](O[C@@H]2[C@@H](CO)OC(O)(CO)[C@H]2O)[C@H](O)[C@@H](O)[C@H]1O` (mixture of isomers) [Lactulose], for which the “percent Bodipy-positive cells” value came out at 1.66 ± 0.21% (library stock concentration: 5.8 mM) and 23.4 ± 1.7% under setting [2].

For the compound `O=C(O)CCCC=CCC1C2CCC(O2)C1CNNC(=O)Nc1ccccc1` (configuration not stated), under setting [1], the “percent Bodipy-positive cells” value was 12.3% and 11.6%.

`COC[C@H](NC(=O)c1cnc(C)s1)C(=O)N[C@@H](COC)C(=O)N[C@@H](Cc1ccccc1)C(=O)[C@@]1(C)CO1` [Oprozomib (ONX 0912)]: the “percent Bodipy-positive cells” value reads like this: under setting [3], 90.9 ± 5.3%; under setting [2], 100%.

Take `Cc1cc(Nc2nc(N[C@@H](C)c3ncc(F)cn3)ncc2Cl)[nH]n1`: the “percent Bodipy-positive cells” value is 19.6 ± 4.5% under setting [4]; 28.2 ± 15% under setting [5]; 15.1 ± 2% under setting [6]; 12 ± 3% under setting [3]; 31.1% and 14.4% under setting [2].

Take `NCCS(=O)O` [Hypotaurine]: under setting [2], the “percent Bodipy-positive cells” value was found to be 61.4 ± 27%.

As for `O=C(O)c1cc(O)c2ccc(Cl)cc2n1` [7-Chlorokynurenic acid], the “percent Bodipy-positive cells” value under setting [2] was determined as 4.88 ± 1.7%.

As for `O=C(O)CCC/C=C\C[C@@H]1CO[C@H](C(F)(F)F)O[C@@H]1c1ccccc1O`, the “percent Bodipy-positive cells” value under setting [2] was found to be 7.29 ± 2.4%.

As to `COc1ccc(-c2cc(C(F)F)nn2-c2ccc(S(N)(=O)=O)cc2)cc1F` [Deracoxib], the “percent Bodipy-positive cells” value under setting [7] stood at 11.1 ± 2.6%.

Turning to `CC(Oc1ccccc1)C(=O)N[C@@H]1C(=O)N2[C@@H]1SC(C)(C)[C@@H]2C(=O)O` (some centres not stated) [Phenethicillin potassium salt], the “percent Bodipy-positive cells” value is 6.07 ± 2%.

For `CC(Oc1ccccc1)C(=O)N[C@@H]1C(=O)N2[C@@H]1SC(C)(C)[C@@H]2C(=O)O` (some centres not stated) [Phenethicillin potassium], the “percent Bodipy-positive cells” value under setting [7] stood at 12.4 ± 1.3%.

With `N[C@@H](C(=O)N[C@@H]1C(=O)N2C(C(=O)O)=C(Cl)CS[C@H]12)c1ccccc1` [Cefaclor], the “percent Bodipy-positive cells” value worked out at 26.2 ± 7.6%. Besides, the “percent Bodipy-positive cells” value (library stock concentration: 5.4 mM) was found to be 21.6 ± 2.1%. Under setting [2], the “percent Bodipy-positive cells” value is 34.1% and 18.6%.

Take `N[C@@H](C(=O)N[C@@H]1C(=O)N2C(C(=O)O)=C(Cl)CS[C@H]12)c1ccccc1`: the “percent Bodipy-positive cells” value under setting [2] worked out at 5.68 ± 0.8%.

With `C[C@]12CC[C@@H]3c4ccc(O)cc4CC[C@H]3[C@@H]1C[C@H](O)[C@@H]2O`, under setting [2], the “percent Bodipy-positive cells” value worked out at 36.3 ± 3.2%.

Consider `Fc1cc(-c2ccnc(Nc3ccc(-n4cnc(N5CCOCC5)n4)cc3)n2)cc(N2CCOCC2)c1`, for which the “percent Bodipy-positive cells” value under setting [4] was found to be 54.8 ± 11%, the “percent Bodipy-positive cells” value under setting [5] was 68.1 ± 2.2%, the “percent Bodipy-positive cells” value under setting [6] was determined as 36.3 ± 10% and the “percent Bodipy-positive cells” value under setting [2] was 48.8 ± 1.6%.

`CCCCC/C=C\C/C=C\C/C=C\C/C=C\CCCC(=O)OC(CO)CO` [2-Arachidonoylglycerol]: the “percent Bodipy-positive cells” value under setting [1] came out at 7.22 ± 3%.

For `CCCCC/C=C\C/C=C\C/C=C\C/C=C\CCCC(=O)OC(CO)CO` [2-Arachidonoyl Glycerol], the “percent Bodipy-positive cells” value under setting [1] was found to be 9.03 ± 0.55%.

As to `NOCC(=O)O` [O-(Carboxymethyl)hydroxylamine hemihydrochloride], the “percent Bodipy-positive cells” value under setting [2] is 39.2 ± 11%.

Take `Cl.Clc1ccc(CCCOCCCN2CCCCC2)cc1`: the “percent Bodipy-positive cells” value under setting [2] was determined as 66.9 ± 2%.

In the case of `CNC(=O)[C@H](Cc1ccccc1)NC(=O)[C@H](CC(C)C)[C@H](CSc1cccs1)C(=O)NO` [Batimastat (BB-94)], the “percent Bodipy-positive cells” value was 30.8 ± 5.6% under setting [3] and 29.19 ± 0.16% under setting [2].

On to `CNCCC(Oc1ccc(C(F)(F)F)cc1)c1ccccc1.Cl` (configuration not stated) [Fluoxetine HCl], for which the “percent Bodipy-positive cells” value by setting is: under setting [3], 77.5 ± 5.7%; under setting [2], 86.1 ± 8.9%.

In the case of `CCCCC[C@H](O)C/C=C1/C(=O)C=C[C@@H]1C/C=C\CCCC(=O)O` [D12-Prostaglandin J2], under setting [1], the “percent Bodipy-positive cells” value was 7.05 ± 6.6%.

On to `CS(=O)(=O)CCNCc1ccc(-c2ccc3ncnc(Nc4ccc(OCc5cccc(F)c5)c(Cl)c4)c3c2)o1.Cc1ccc(S(=O)(=O)O)cc1.Cc1ccc(S(=O)(=O)O)cc1`, for which the “percent Bodipy-positive cells” value is 98.18 ± 0.32% under setting [3] and 99.57 ± 0.35% under setting [2].

On to `Cn1nnnc1SCC1=C(C(=O)O)N2C(=O)[C@@H](NC(=O)[C@H](OC=O)c3ccccc3)[C@H]2SC1` [Cefamandole nafate], for which the “percent Bodipy-positive cells” value under setting [2] was 27.7 ± 7.5%.

Consider `CO/N=C(\C(=O)N[C@@H]1C(=O)N2C(C(=O)O)=C(C[N+]3(C)CCCC3)CS[C@H]12)c1csc(N)n1` [Cefepime hydrochloride], for which the “percent Bodipy-positive cells” value was 10.5 ± 5.9%.

As for `CCOC(=O)[C@H](CCc1ccccc1)N[C@@H](C)C(=O)N1CCC[C@H]1C(=O)O`, the “percent Bodipy-positive cells” value under setting [2] turned out to be 54.2 ± 20%.

Regarding `CCOC(=O)[C@H](CCc1ccccc1)N[C@@H](C)C(=O)N1CCC[C@H]1C(=O)O` [Enalapril Maleate], the “percent Bodipy-positive cells” value runs as follows: under setting [3], 11.8 ± 2.1%; under setting [2], 20.5 ± 12%.

With `CCOC(=O)[C@H](CCc1ccccc1)N[C@@H](C)C(=O)N1CCC[C@H]1C(=O)O` [Enalapril maleate], the “percent Bodipy-positive cells” value amounted to 24.707 ± 0.023%. For the same compound, the “percent Bodipy-positive cells” value under setting [2] turned out to be 24.4 ± 3.9%.

As to `CCOC(=O)[C@H](CCc1ccccc1)N[C@@H](C)C(=O)N1CCC[C@H]1C(=O)O` [Enalapril], the “percent Bodipy-positive cells” value (library stock concentration: 5.3 mM) was 8.99 ± 0.59%.

For `O=C1CC2(CCCC2)CC(=O)N1CCNCC1COc2ccccc2O1` (configuration not stated), the “percent Bodipy-positive cells” value under setting [2] was 11.9% and 9.36%.

For `NC[C@@H]1O[C@H](c2ccccc2)Cc2c1ccc(O)c2O`, under setting [2], the “percent Bodipy-positive cells” value was 26.9 ± 0.72%.

As to `CCCCC[C@H](O)/C=C/[C@H]1[C@H](O)CC(=O)[C@@H]1C/C=C\CCCC(=O)NC(CO)CO` [Prostaglandin E2 serinol amide], the “percent Bodipy-positive cells” value under setting [1] was 13 ± 3.4%.

As for `CCCCC(=O)O[C@]1(C(=O)CO)CC[C@H]2[C@@H]3CCC4=CC(=O)CC[C@]4(C)[C@H]3[C@@H](O)C[C@@]21C` [Westcort], the “percent Bodipy-positive cells” value under setting [2] came out at 20.7 ± 3.5%.

Take `CCCCC(=O)O[C@]1(C(=O)CO)CC[C@H]2[C@@H]3CCC4=CC(=O)CC[C@]4(C)[C@H]3[C@@H](O)C[C@@]21C` [Hydrocortisone valerate]: the “percent Bodipy-positive cells” value (library stock concentration: 4.5 mM) amounted to 12.6 ± 10%.

As for `CCC[C@H](NC(=O)[C@@H]1[C@H]2CCC[C@H]2CN1C(=O)[C@@H](NC(=O)[C@@H](NC(=O)c1cnccn1)C1CCCCC1)C(C)(C)C)C(=O)C(=O)NC1CC1` [Telaprevir (VX-950)], the “percent Bodipy-positive cells” value under setting [3] came to 9.22 ± 1% and the “percent Bodipy-positive cells” value under setting [2] came to 19.5 ± 5.6%.
